The subject of this data set is Bacillus subtilis. Briefly: Detection of bacterial viability (SYTO9/PI, flow cytometry). Conditions: 2 h. As to the method: • 1. Culture of bacterial strains. After the four bacterial strains were activated on a nutrient agar plate, a single colony was picked, inoculated to TSB medium (10 g/L peptone, 3 g/L beef extract powder, and 5 g/L sodium chloride), incubated at 37° C. for 6 h to the mid-logarithmic stage, and then centrifuged at 8000 rpm for 5 min to collect the bacterial cells. The collected bacterial cells were suspended in fresh TSB medium at a bacterial suspension concentration of approximately 10^7 cells/mL. • 2. Antibiotics. […] Bacterial growth was analyzed using a microplate reader, and the smallest concentration of antibiotics that could inhibit the growth of bacteria was defined as the minimum inhibitory concentration. • 4. […] After centrifugation at 8000 rpm, the bacterial cells were collected and resuspended in the PBS buffer, and the changes in the number of bacteria in the sample were analyzed using the forward scatter signals on the flow cytometer. • 5. […] The above labeling system was left at room temperature for 30 min in the dark, washed and centrifuged with PBS twice, and the percentages of viable and dead bacteria were analyzed using a flow cytometer. […]

In the case of `O=C(O)c1cn(C2CC2)c2cc(N3CCNCC3)c(F)cc2c1=O` [Ciprofloxacin, ciprofloxacin], the “bacterial viability after antibiotic treatment” value is listed as 79.7%.

The values are drawn from patent US20260276636A1, “METHOD FOR SPECIFIC AND RAPID QUANTIFICATION OF THE TOTAL VIABLE BACTERIAL COUNT IN RAW MILK” (National Institute of Metrology, priority 2023, published 2026).
